The values below come from PMC8060364.

Protein sequences, listed by entry. Tags and fused reporters are not part of them.
UniProt P0A6X3: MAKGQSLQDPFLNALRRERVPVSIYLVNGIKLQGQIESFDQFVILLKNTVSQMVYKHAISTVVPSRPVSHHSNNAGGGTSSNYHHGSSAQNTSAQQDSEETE

No constants are given. Whether binding was seen depends on the method and setting. Binding seen in cells or lysates may run through a third protein.

For this test, the target named is T1, RelA:C289Y, chromosomally encoded, in E. coli cell lysate (E. coli (endogenous in E. coli)) (UniProt P0AG20).
T1 sequence: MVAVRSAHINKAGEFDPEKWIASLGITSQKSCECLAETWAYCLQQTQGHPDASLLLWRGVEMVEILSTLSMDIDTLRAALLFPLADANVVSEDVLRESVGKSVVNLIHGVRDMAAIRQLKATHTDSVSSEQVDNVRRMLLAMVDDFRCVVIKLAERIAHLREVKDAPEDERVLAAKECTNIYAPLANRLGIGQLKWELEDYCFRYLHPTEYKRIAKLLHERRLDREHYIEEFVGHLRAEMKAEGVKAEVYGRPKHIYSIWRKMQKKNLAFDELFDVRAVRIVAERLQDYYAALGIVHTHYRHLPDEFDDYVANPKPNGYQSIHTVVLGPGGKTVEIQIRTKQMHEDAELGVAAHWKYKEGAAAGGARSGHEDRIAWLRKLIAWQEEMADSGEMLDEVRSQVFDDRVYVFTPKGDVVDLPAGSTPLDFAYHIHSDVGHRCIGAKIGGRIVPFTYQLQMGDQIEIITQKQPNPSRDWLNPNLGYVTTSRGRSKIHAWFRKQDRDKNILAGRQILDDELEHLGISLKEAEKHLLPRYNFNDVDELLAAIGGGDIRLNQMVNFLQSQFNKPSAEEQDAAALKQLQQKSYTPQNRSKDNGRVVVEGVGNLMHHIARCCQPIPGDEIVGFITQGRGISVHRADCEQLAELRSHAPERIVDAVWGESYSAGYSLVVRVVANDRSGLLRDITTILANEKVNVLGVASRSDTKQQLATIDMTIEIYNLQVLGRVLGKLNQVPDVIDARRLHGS
As to the kind of experiment: co-IP; lysates of E. coli grown overnight in M9 minimal medium, left untreated; rabbit anti-RelA antibody and Protein A Sepharose, 4 °C; lysis buffer 20 mM Tris pH 8.0, 150 mM KCl, 1 mM MgCl2, 1 mM DTT; Hfq detected by western with anti-Hfq.

Turning to “Hfq, chromosomally encoded, in E. coli cell lysate (from UniProt P0A6X3 1-102)”, the binding result is “no binding”.
